Source: patent US20090324602A1
No constants are given. Whether binding was seen depends on the method and setting. Some entries that bind do so weakly or less than the wild type.

Chains of the proteins cited; added tags and fusions are not shown. Lines headed by an entry give the natural chain unless they say otherwise; changes in a name come on top.
UniProt Q9NP84: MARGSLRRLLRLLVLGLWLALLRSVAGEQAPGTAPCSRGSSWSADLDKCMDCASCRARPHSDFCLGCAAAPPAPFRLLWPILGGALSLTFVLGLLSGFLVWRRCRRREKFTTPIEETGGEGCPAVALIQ

Experiments:
[1] = molecular target: huFn14-huFc fusion protein (human) (UniProt Q9NP84); experiment: ELISA on plate-coated hFn14-hFc, biotinylated P3G5 at 0.2 ug/ml, HRP-streptavidin, OD450
[2] = molecular target: huFn14-huFc fusion protein (human) (UniProt Q9NP84); experiment: competition ELISA (legend of FIG. 25)
[3] = molecular target: huFn14-huFc fusion protein (human) (UniProt Q9NP84); experiment: competition ELISA, huFn14-huFc coated, competitor biotinylated murine P4A8 (FIG. 25)

binding [1] | binding [2] | binding [3] | Binder
binds | – | – | monoclonal antibody 1.P3G5.1E4 (P3G5), murine (antibody, V domains shown) VH: QVQLQQSGPEVVRPGVSVKISCKGSGYTFTDYGIHWVKQSHAKSLEWIGVISTYNGYTNYNQKFKGKATMTVDKSSSTAYMELARLTSEDSAIYYCARAYYGNLYYAMDYWGQGTSVTVSS VL: DIVLTQSPASLAVSLGQRATISCRANKSVSTSSYSYMHWYQQKPGQPPKLLIKYASNLESGVPARFSGSGSGTDFILNIHPVEEEDAATYYCQHSRELPFTFGSGTKLEIK
– | binds | binds | humanized P4A8 (H1/L2) huIgG1, kappa (antibody, V domains shown) VH: QVQLVQSGAEVKKPGASVKVSCKGSGYTFTDYGMHWVRQAPGQGLEWMGVISTYNGYTNYNQKFKGRVTMTVDKSTSTAYMELRSLRSDDTAVYYCARAYYGNLYYAMDYWGQGTLVTVSS VL: DIVLTQSPASLAVSLGQRATISCRASKSVSTSSYSYMHWYQQKPGQPPKLLIKYASNLESGVPARFSGSGSGTDFILNIHPMEEDDTAMYFCQHSRELPFTFGGGTKLEIKR
– | binds | binds | humanized P4A8 (H1/L3) huIgG1, kappa (antibody, V domains shown) VH: QVQLVQSGAEVKKPGASVKVSCKGSGYTFTDYGMHWVRQAPGQGLEWMGVISTYNGYTNYNQKFKGRVTMTVDKSTSTAYMELRSLRSDDTAVYYCARAYYGNLYYAMDYWGQGTLVTVSS VL: DIVLTQSPASLAVSLGQRATISCRASKSVSTSSYSYMHWYQQKPGQPPKLLIKYASNLESGVPARFSGSGSGTDFILNIHPMEEDDTATYYCQHSRELPFTFGGGTKLEIKR
– | binds | binds | humanized P4A8 (H2/L3) huIgG1, kappa (antibody, V domains shown) VH: QVQLVQSGAEVKKPGASVKVSCKGSGYTFTDYGMHWVRQAPGQGLEWIGVISTYNGYTNYNQKFKGRATMTVDKSTSTAYMELRSLRSDDTAVYYCARAYYGNLYYAMDYWGQGTLVTVSS VL: DIVLTQSPASLAVSLGQRATISCRASKSVSTSSYSYMHWYQQKPGQPPKLLIKYASNLESGVPARFSGSGSGTDFILNIHPMEEDDTATYYCQHSRELPFTFGGGTKLEIKR
– | binds | binds | humanized P4A8 (H2/L2) huIgG1, kappa (antibody, V domains shown) VH: QVQLVQSGAEVKKPGASVKVSCKGSGYTFTDYGMHWVRQAPGQGLEWIGVISTYNGYTNYNQKFKGRATMTVDKSTSTAYMELRSLRSDDTAVYYCARAYYGNLYYAMDYWGQGTLVTVSS VL: DIVLTQSPASLAVSLGQRATISCRASKSVSTSSYSYMHWYQQKPGQPPKLLIKYASNLESGVPARFSGSGSGTDFILNIHPMEEDDTAMYFCQHSRELPFTFGGGTKLEIKR
– | binds | binds | humanized P4A8 (H2/L1) huIgG1, kappa (antibody, V domains shown) VH: QVQLVQSGAEVKKPGASVKVSCKGSGYTFTDYGMHWVRQAPGQGLEWIGVISTYNGYTNYNQKFKGRATMTVDKSTSTAYMELRSLRSDDTAVYYCARAYYGNLYYAMDYWGQGTLVTVSS VL: DIVLTQSPASLAVSLGQRATISCRASKSVSTSSYSYMHWYQQKPGQPPKLLIKYASNLESGVPARFSGSGSGTDFSLNIHPMEEDDTAMYFCQHSRELPFTFGGGTKLEIKR
